Source: PubChem BioAssay AID248 (DTP/NCI, 2004)
The list shows only some results of the screen, not a fair sample: it gathers tests that were run many times, whatever their T/C, doses with no T/C, and many T/C values between a quarter and a half above the control. Further doses and runs are listed elsewhere. T/C gives the treated animals as a percentage of the vehicle group. Some entries give survivors of the animals treated and no T/C: the source files T/C as zero there, which appears to mark a toxic dose or a test without result, not a measured value. Some survivor counts are full or nearly so, which does not show that the dose was tolerated: survival well below the control is almost never listed, so the zero probably covers shortened survival too. Counts of survivors are from the toxicity check (mostly the fifth day) where no day follows; animals may have died later. Schedule codes are those of the source, read here as Q, the interval in days (D) or hours (H), X, the number of doses. Some schedule codes hold Z or #, which are not explained here. Where survival is the endpoint, the PubChem record calls one and a half times the control and up active, and a quarter to a half above the control has no call in these data; cut-offs in other NCI protocols can differ.

Tested on: L1210 leukemia ip in BDF1 mice, survival T/C
Experiment: NCI In Vivo Anticancer Drug Screen. Data for tumor model L1210 Leukemia (intraperitoneal) in B6D2F1 (BDF1) mice
Conditions: higher T/C = longer survival
[1] = T/C endpoint: mean survival time, dose: 200.0 mg/kg/injection, schedule: Q01DX009 (ip), vehicle: Klucel (hydroxypropylcellulose) (HPC)
[2] = T/C endpoint: mean survival time, dose: 400.0 mg/kg/injection, schedule: Q01DX009 (ip), vehicle: Klucel (hydroxypropylcellulose) (HPC)
[3] = T/C endpoint: mean survival time, dose: 400.0 mg/kg/injection, schedule: Q04DX002 (ip), vehicle: saline
[4] = T/C endpoint: mean survival time, dose: 40.0 mg/kg/injection, schedule: Q01DX001 (ip), vehicle: saline
[5] = T/C endpoint: mean survival time, dose: 80.0 mg/kg/injection, schedule: Q01DX001 (ip), vehicle: saline
[6] = T/C endpoint: mean survival time, dose: 400.0 mg/kg/injection, schedule: Q01DX001 (ip), vehicle: saline
[7] = T/C endpoint: mean survival time, dose: 200.0 mg/kg/injection, schedule: Q01DX009 (ip), vehicle: saline with Tween-80
[8] = T/C endpoint: mean survival time, dose: 400.0 mg/kg/injection, schedule: Q04DX003 (ip), vehicle: Klucel (hydroxypropylcellulose) (HPC)
[9] = T/C endpoint: mean survival time, dose: 100.0 mg/kg/injection, schedule: Q01DX009 (ip), vehicle: saline with Tween-80
[10] = T/C endpoint: mean survival time, dose: 100.0 mg/kg/injection, schedule: Q04DX003 (ip), vehicle: saline
[11] = T/C endpoint: mean survival time, dose: 200.0 mg/kg/injection, schedule: Q04DX003 (ip), vehicle: saline
[12] = T/C endpoint: mean survival time, dose: 400.0 mg/kg/injection, schedule: Q04DX003 (ip), vehicle: saline
[13] = T/C endpoint: mean survival time, dose: 150.0 mg/kg/injection, schedule: Q01DX001 (ip), vehicle: saline
[14] = T/C endpoint: mean survival time, dose: 300.0 mg/kg/injection, schedule: Q01DX001 (ip), vehicle: saline
[15] = T/C endpoint: mean survival time, dose: 75.0 mg/kg/injection, schedule: Q01DX001 (ip), vehicle: saline

## N=c1c2ncn(Cc3cccc(C(F)(F)F)c3)c2ncn1O
T/C endpoint: mean survival time, dose: 4.6 mg/kg/injection, schedule: Q01DX009 (ip), vehicle: Klucel (hydroxypropylcellulose) (HPC)
  survivor count: 3 of 6
T/C endpoint: mean survival time, dose: 6.25 mg/kg/injection, schedule: Q04DX003 (ip), vehicle: Klucel (hydroxypropylcellulose) (HPC)
  survivor count: 1 of 6
T/C endpoint: mean survival time, dose: 7.0 mg/kg/injection, schedule: Q01DX009 (ip), vehicle: Klucel (hydroxypropylcellulose) (HPC)
  survivor count: 2 of 6
T/C endpoint: mean survival time, dose: 10.0 mg/kg/injection, schedule: Q01DX009 (ip), vehicle: Klucel (hydroxypropylcellulose) (HPC)
  survivor count: 0 of 6
T/C endpoint: mean survival time, dose: 12.5 mg/kg/injection, schedule: Q04DX003 (ip), vehicle: Klucel (hydroxypropylcellulose) (HPC)
  survivor count: 0 of 6
T/C endpoint: mean survival time, dose: 25.0 mg/kg/injection, schedule: Q04DX003 (ip), vehicle: Klucel (hydroxypropylcellulose) (HPC)
  survivor count: 0 of 6
T/C endpoint: mean survival time, dose: 50.0 mg/kg/injection, schedule: Q04DX003 (ip), vehicle: Klucel (hydroxypropylcellulose) (HPC)
  survivor count: 1 of 6

## Cc1cccc2c(C)c3cccc[n+]3cc12
T/C endpoint: mean survival time, dose: 32.0 mg/kg/injection, schedule: Q01DX Z (ip), vehicle: carboxymethylcellulose (CMC)
  survivor count: 4 of 6
T/C endpoint: mean survival time, dose: 64.0 mg/kg/injection, schedule: Q01DX Z (ip), vehicle: carboxymethylcellulose (CMC)
  survivor count: 0 of 6

## CC(C)(C)NC(=O)NCc1ccco1
T/C endpoint: mean survival time, dose: 100.0 mg/kg/injection, schedule: Q01DX009 (ip), vehicle: Klucel (hydroxypropylcellulose) (HPC)
  survivor count: 3 of 6
[1]
  survivor count: 0 of 6
[2]
  survivor count: 0 of 6

## O=c1ccnc(SCc2ccc(Cl)cc2)[nH]1
T/C endpoint: mean survival time, dose: 200.0 mg/kg/injection, schedule: Q01DX Z (ip), vehicle: methylcellulose (MC)
  survivor count: 6 of 6

## CCOC(=O)c1[nH]c(-c2ccccc2)nc1/N=N/N(C)C
T/C endpoint: median survival time, dose: 50.0 mg/kg/injection, schedule: Q01DX009 (ip), vehicle: Klucel (hydroxypropylcellulose) (HPC)
  T/C: 138 % of control
T/C endpoint: median survival time, dose: 100.0 mg/kg/injection, schedule: Q01DX009 (ip), vehicle: Klucel (hydroxypropylcellulose) (HPC)
  T/C: 138 % of control

## O=C(O)c1cc(-c2cccs2)c(C(=O)O)s1
T/C endpoint: mean survival time, dose: 400.0 mg/kg/injection, schedule: Q04DX003 (ip), vehicle: other
  survivor count: 3 of 6

## Cc1c2oc3c(C)ccc(C(=O)NCCN4CCCCC4)c3nc-2c(C(=O)NCCN2CCCCC2)c(N)c1=O
[3]
  survivor count: 0 of 3

## CNc1ncnc2c1c(Br)cn2C1OC(CO)C(O)C1O (stereo unspecified)
[4]
  survivor count: 2 of 4
[5]
  survivor count: 0 of 4

## [O-][n+]1cc(-c2ccccc2)cc2ccccc21
T/C endpoint: mean survival time, dose: 200.0 mg/kg/injection, schedule: Q01DX001 (ip), vehicle: saline
  survivor count: 2 of 4
[6]
  survivor count: 0 of 4

## CN(C)CC1CCCCC1OC(=O)c1ccccc1 (stereo unspecified)
[7]
  survivor count: 0 of 3

## CCOC(=O)/C(O)=C\c1cc(Cl)nnc1Cl
T/C endpoint: mean survival time, dose: 81.3 mg/kg/injection, schedule: Q04DX002 (ip), vehicle: Klucel (hydroxypropylcellulose) (HPC)
  T/C: 126 % of control

## O=c1c2ccccc2n2nnc3cccc1c32
T/C endpoint: mean survival time, dose: 200.0 mg/kg/injection, schedule: Q01DX001 (ip), vehicle: Klucel (hydroxypropylcellulose) (HPC)
  survivor count: 6 of 6
[8]
  survivor count: 6 of 6

## O=C1OC(=O)C2C3C=CC(O3)C12 (stereo unspecified)
T/C endpoint: mean survival time, dose: 50.0 mg/kg/injection, schedule: Q01DX009 (ip), vehicle: saline with Tween-80
  survivor count: 0 of 6
[9]
  survivor count: 3 of 3
[10]
  survivor count: 2 of 6
[7]
  survivor count: 0 of 3
[11]
  survivor count: 0 of 6
[12]
  survivor count: 0 of 6

## CCS(=O)(=O)/C=C/c1ccncc1
T/C endpoint: mean survival time, dose: 200.0 mg/kg/injection, schedule: Q04DX002 (ip), vehicle: saline
  survivor count: 0 of 3
[3]
  survivor count: 0 of 3

## O=C1c2cc(Cl)cc(Cl)c2-c2c(NC(=O)C(Cl)Cl)cc(Cl)cc21
[1]
  survivor count: 3 of 6
[2]
  survivor count: 0 of 6

## CC1=CC(C)(C)NC(=S)N1c1ccc(N=Nc2ccccc2)cc1
T/C endpoint: mean survival time, dose: 224.0 mg/kg/injection, schedule: Q01DX Z (ip), vehicle: methylcellulose (MC)
  survivor count: 6 of 6
T/C endpoint: mean survival time, dose: 750.0 mg/kg/injection, schedule: Q01DX Z (ip), vehicle: methylcellulose (MC)
  survivor count: 4 of 6

## CN(CCc1cnc2nc(N)nc(N)c2n1)c1ccc(C(=O)O)cc1
[13]
  survivor count: 1 of 6
[14]
  survivor count: 1 of 6

## CCN(CC)CCC(=O)OC(c1ccccc1)C1(O)CCSC1 (stereo unspecified)
[8]
  survivor count: 0 of 6

## NC(N)=N/N=C/CO
T/C endpoint: mean survival time, dose: 15.0 mg/kg/injection, schedule: Q01DX Z (ip), vehicle: saline
  survivor count: 2 of 6
T/C endpoint: mean survival time, dose: 30.0 mg/kg/injection, schedule: Q01DX Z (ip), vehicle: saline
  survivor count: 0 of 6
T/C endpoint: mean survival time, dose: 60.0 mg/kg/injection, schedule: Q01DX Z (ip), vehicle: saline
  survivor count: 0 of 6
T/C endpoint: mean survival time, dose: 120.0 mg/kg/injection, schedule: Q01DX Z (ip), vehicle: saline
  survivor count: 0 of 6
T/C endpoint: mean survival time, dose: 480.0 mg/kg/injection, schedule: Q01DX Z (oral), vehicle: saline
  survivor count: 6 of 6
T/C endpoint: mean survival time, dose: 960.0 mg/kg/injection, schedule: Q01DX Z (oral), vehicle: saline
  survivor count: 4 of 6

## NC(Cc1ccccc1)C(=O)NCCCCCCCCCCNC(=O)C(N)Cc1ccccc1 (stereo unspecified)
[6]
  survivor count: 2 of 4

## ClCCCNCc1ccc(-c2c3ccccc3cc3c2ccc2ccccc23)cc1
T/C endpoint: mean survival time, dose: 400.0 mg/kg/injection, schedule: Q01DX001 (ip), vehicle: carboxymethylcellulose (CMC)
  survivor count: 0 of 4

## C=C(Br)CNC(=O)C(F)(F)F
[10]
  survivor count: 0 of 6
[11]
  survivor count: 0 of 6
[12]
  survivor count: 0 of 6

## CCP(CC)c1cccc(OC(=O)NC)c1
[4]
  survivor count: 0 of 6
[15]
  survivor count: 0 of 6
[5]
  survivor count: 0 of 6
[13]
  survivor count: 0 of 6
[14]
  survivor count: 0 of 6

## COC(OC)c1cc(=O)n(C)c(=O)[nH]1
[9]
  survivor count: 6 of 6

## BrP(Nc1ccccc1)(c1ccccc1)(c1ccccc1)c1ccccc1
[15]
  survivor count: 1 of 6
[13]
  survivor count: 0 of 6
[14]
  survivor count: 0 of 6

## CCCC(C(=O)OCCNC1CCCCC1)c1ccccc1 (stereo unspecified)
[13]
  survivor count: 3 of 6
[14]
  survivor count: 0 of 6

## CC1C=CC(c2ccccc2)C2C(=O)OC(=O)C12 (stereo unspecified)
[1]
  survivor count: 2 of 3

## Nc1nc(N)c2c(no[n+]2[O-])n1
T/C endpoint: mean survival time, dose: 150.0 mg/kg/injection, schedule: Q01DX001 (ip), vehicle: other
  survivor count: 2 of 6
T/C endpoint: mean survival time, dose: 300.0 mg/kg/injection, schedule: Q01DX001 (ip), vehicle: other
  survivor count: 0 of 6

## CC(=O)C(CCC#N)(CCC#N)CCC#N
[10]
  survivor count: 6 of 6

## O=C1NC(=O)C(O)(O)C(=O)N1
T/C endpoint: mean survival time, dose: 400.0 mg/kg/injection, schedule: Q01DX009 (ip), vehicle: saline
  survivor count: 0 of 6

## CCCC1=Cc2cc3c(cc2C1N(C)C)OCO3 (stereo unspecified)
T/C endpoint: mean survival time, dose: 400.0 mg/kg/injection, schedule: Q01DX001 (ip), vehicle: Klucel (hydroxypropylcellulose) (HPC)
  survivor count: 2 of 3

## COc1cc(/C=C2\CCOC2=O)cc(/C=C2\CCOC2=O)c1O
T/C endpoint: mean survival time, dose: 50.0 mg/kg/injection, schedule: Q04DX002 (ip), vehicle: saline with Tween-80
  survivor count: 3 of 3
T/C endpoint: mean survival time, dose: 200.0 mg/kg/injection, schedule: Q04DX002 (ip), vehicle: saline with Tween-80
  survivor count: 3 of 3
T/C endpoint: mean survival time, dose: 400.0 mg/kg/injection, schedule: Q04DX002 (ip), vehicle: saline with Tween-80
  survivor count: 3 of 3
